{"source": "PubChem BioAssay AID1347076", "about": "(National Center for Advancing Translational Sciences (NCATS), 2019)", "note": "The whole screen tested about 400,000 compounds, of which about 13,000 (3.2%) were called active. Inconclusive results, whose numbers are uncertain, are shown with a selection of clear calls. Calls follow the shape of the dose curve; as a rule, active = well fitted cell-killing curve with a large enough effect; inconclusive = small, poorly fitted or top-dose-only effect, or effect the other way; inactive = flat fitted curve, though single readings scatter. Potencies beside an inconclusive call are fits to weak or partial responses and may not hold up. % is scaled to controls: 0 for no effect and ±100 for the full control effect; potency is read from the fitted curve at half-maximal effect.", "data": [{"experiment": "qHTS assay for MDR1-selective chemotherapeutics: Primary screen using the drug-selected MDR subline cells KB-V1; also: nearly all actives have a fitted effect of over 60% in size", "conditions": "KB-V1 MDR cells viability, CellTiter-Glo, 72 h; activity change, negative = cytotoxicity: at 46.1 µM (top of the series)", "how_it_was_run": "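Drug-selected KB-V1 cells, grown in DMEM lacking phenol red with 10% FBS, receive compound titrations; after three days at 37 degrees C, surviving cell ATP is quantified by CellTiter-Glo luminescence and responses normalized and curve-fitted.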", "values": [{"compound": "CC1=CC(=O)C(Sc2ccc(C)cc2)=CC1=O", "activity change, negative = cytotoxicity": "inactive: -4.1%"}, {"compound": "Cc1ccc(Oc2ccc(C(=O)NCc3ccncc3)cc2)cc1", "Potency": "active: 20.6 µM"}, {"compound": "BrC(=C\\c1ccccc1)/C=N/N1CCN(c2ccccn2)CC1", "Potency": "inconclusive: 32.6 µM [cytotoxic, single point]"}, {"compound": "CC1CCN(C(=O)CCCN2C(=O)c3cccnc3Oc3ccc(Cl)cc32)CC1", "activity change, negative = cytotoxicity": "inactive: -6.19%"}, {"compound": "CC1CN(c2ccc([N+](=O)[O-])c(NCCOc3ccccc3)c2)CCN1", "note": "(stereo not given)", "Potency": "inconclusive: 7.31 µM [cytotoxic, partial curve, poor fit]"}, {"compound": "Cc1c(O)ccc(/C(Cc2ccc3ccccc3n2)=N\\O)c1O", "Potency": "inconclusive: 23.1 µM [cytotoxic, single point]"}, {"compound": "CCOc1ccccc1OCC(=O)Nc1cc(S(=O)(=O)N2CCCCC2)ccc1OC", "Potency": "inconclusive: 16.4 µM [cytotoxic, single point]"}, {"compound": "CCOC(=O)c1ccc(NC2=CC(=O)CC(c3ccco3)C2)cc1", "note": "(stereo not given)", "Potency": "inconclusive: 29.1 µM [cytotoxic, single point]"}, {"compound": "S=C(Nc1cc(Cl)cc(Cl)c1)NC1CCN(Cc2ccccc2)CC1", "activity change, negative = cytotoxicity": "inconclusive: -34.2% [cytotoxic]"}, {"compound": "CCCCN1C(=O)C(=O)c2cc(Cl)ccc21", "Potency": "inconclusive: 29.1 µM [cytotoxic, single point]"}, {"compound": "CCCCC(=O)NNC(=S)NCc1ccccc1", "Potency": "inconclusive: 20.6 µM [rising, single point]"}, {"compound": "CCOc1ccc(-c2noc(CSc3nnc(Cc4ccccc4)n3-c3cccc(C)c3)n2)cc1", "Potency": "inconclusive: 13 µM [cytotoxic, partial curve, poor fit]"}, {"compound": "COc1ccc(N(CC(=O)Nc2nc3ccc(C)cc3s2)S(=O)(=O)c2c(C)nn(C)c2C)cc1", "Potency": "inconclusive: 29.1 µM [cytotoxic, single point]"}, {"compound": "Cc1cc(O)ccc1Nc1nc(-c2cccnc2)cs1", "Potency": "inconclusive: 7.31 µM [cytotoxic, partial curve]"}, {"compound": "COc1ccccc1NC(=O)CCN1C(=O)c2ccccc2S1(=O)=O", "Potency": "inconclusive: 4.11 µM [rising, full curve]"}, {"compound": "O=C(Nc1cccc2ncccc12)c1ccc([N+](=O)[O-])o1", "Potency": "inconclusive: 29.1 µM [cytotoxic, single point]"}, {"compound": "CCN(CC)CC#CC(OC)(c1ccccc1)c1ccccc1", "Potency": "inconclusive: 16.4 µM [cytotoxic, single point]"}, {"compound": "O=C1Cc2ccccc2C(c2ccc(Cl)cc2)N1", "note": "(stereo not given)", "activity change, negative = cytotoxicity": "inactive: -13.7%"}, {"compound": "N#Cc1ccccc1OCCCN1CCC(C(O)(c2ccccc2)c2ccccc2)CC1", "Potency": "active: 23.1 µM"}, {"compound": "O=C(c1ccc(Cl)cc1)c1oc2ccccc2c1CS(=O)(=O)c1ccccc1", "Potency": "active: 6.51 µM"}, {"compound": "C/C(=N\\Nc1nc2ccccc2[nH]1)c1ccc2c(c1)OCO2", "Potency": "inconclusive: 25.9 µM [cytotoxic, single point]"}, {"compound": "CSc1nnc(C)c(/C=C/Nc2ccc(C)cc2)n1", "Potency": "inconclusive: 25.9 µM [cytotoxic, partial curve, poor fit]"}, {"compound": "CCCCn1c(N)c(N(CCOC)C(=O)CCNC(=O)c2ccccc2Cl)c(=O)[nH]c1=O", "Potency": "inconclusive: 14.6 µM [rising, single point]"}, {"compound": "CCOC(=O)[C@H]1[C@H]2COc3ccc(OC)cc3[C@@H]2N2C(=O)c3ccccc3NC(=O)[C@@]12C", "activity change, negative = cytotoxicity": "inactive: -10.6%"}, {"compound": "CCOC(=O)/C(=N/Nc1ccccc1)Sc1nnc(CCc2ccccc2)n1-c1ccccc1", "Potency": "inconclusive: 10.3 µM [cytotoxic, partial curve, poor fit]"}, {"compound": "COc1cc(OC)nc(Oc2cc(/C=N/O)ccc2OC)n1", "Potency": "inconclusive: 16.4 µM [cytotoxic, single point]"}, {"compound": "Brc1ccccc1C1=Nn2c(nnc2-c2ccccc2)SC1", "Potency": "inconclusive: 20.6 µM [cytotoxic, partial curve, poor fit]"}, {"compound": "O=C(NCc1ccccc1F)C1CCCN1C(=O)Nc1ccc(Cl)cc1", "note": "(stereo not given)", "activity change, negative = cytotoxicity": "inactive: -5.21%"}, {"compound": "O=C(C1CCN(Cc2cc(Cl)ccc2O)CC1)N1CCN(Cc2ccccc2)CC1", "Potency": "active: 10.3 µM"}, {"compound": "COc1cc(Cl)ccc1NC(=S)N(CCN(C)C)C(C)c1ccncc1", "note": "(stereo not given)", "Potency": "inconclusive: 9.2 µM [cytotoxic, partial curve]"}, {"compound": "CCC(C(=O)NCCCN1CCN(CC)CC1)n1nc(C)n2c(cc3occc32)c1=O", "note": "(stereo not given)", "Potency": "inconclusive: 0.517 µM [rising, partial curve, poor fit]"}, {"compound": "Cc1c(C(=O)NC(=S)NCc2cccnc2)oc2ccccc12", "Potency": "inconclusive: 7.31 µM [cytotoxic, partial curve]"}, {"compound": "COc1cc(Cl)c(C)cc1NC(=O)c1cnc2c(-c3cccc(C)c3)c(C)nn2c1C", "activity change, negative = cytotoxicity": "inactive: 16.4%"}, {"compound": "COCCOc1nc2c(c(=O)n(C)c(=O)n2C)n1Cc1cccc(OC)c1", "Potency": "inconclusive: 2.31 µM [cytotoxic, full curve, poor fit]"}, {"compound": "COc1ccc2c3c(n(C(=O)OC(C)(C)C)c2c1)C1CC=C(COC(C)=O)CN1CC3", "note": "(stereo not given)", "Potency": "inconclusive: 20.6 µM [cytotoxic, single point]"}, {"compound": "Cc1c(C(=O)C(=O)NCc2cccs2)c2ccccc2n1C", "Potency": "inconclusive: 23.1 µM [cytotoxic, single point]"}, {"compound": "CCN(CCn1cccn1)Cc1nc(-c2ccc(OC)cc2)no1", "Potency": "inconclusive: 23.1 µM [cytotoxic, single point]"}, {"compound": "O=C(NNC(=O)c1ccc[nH]1)Nc1cc(Cl)cc(Cl)c1", "activity change, negative = cytotoxicity": "inconclusive: 40.2%"}, {"compound": "COc1ccc(-c2nnc(SCC(=O)Nc3cccc(Cl)c3)o2)cc1", "Potency": "active: 16.4 µM"}, {"compound": "COc1ccccc1C(=O)NCCC(=O)NCC(c1ccccc1)N(C)C", "note": "(stereo not given)", "activity change, negative = cytotoxicity": "inactive: -8.77%"}, {"compound": "O=C1c2ccccc2C(=O)N1CC(O)COc1cccc2ccccc12", "note": "(stereo not given)", "activity change, negative = cytotoxicity": "inactive: -21.8%"}, {"compound": "O=C(Cn1cc([N+](=O)[O-])ccc1=O)Nc1ccc2c(c1)OCO2", "Potency": "inconclusive: 29.1 µM [rising, single point]"}, {"compound": "Fc1ccc(CSc2nnc3ccccn23)c(Cl)c1", "Potency": "inconclusive: 23.1 µM [cytotoxic, partial curve, poor fit]"}, {"compound": "c1ccc2oc(-c3nn4c(Cn5cnc6ccccc65)nnc4s3)cc2c1", "activity change, negative = cytotoxicity": "inactive: 21.3%"}, {"compound": "Cc1ccc(-c2csc3nc(SCC(N)=O)n(Cc4ccccc4)c(=O)c23)cc1", "Potency": "active: 20.6 µM"}]}]}
